Data taken from US6358738.
Results are given in words; binding and its absence hold for the method and conditions named. Some binding calls cover weakened binding; strength is not graded here.

Protein sequences, listed by entry. Tags and fused reporters are not part of them. Lines headed by an entry give the natural chain unless they say otherwise; changes in a name come on top.
UniProt Q07832: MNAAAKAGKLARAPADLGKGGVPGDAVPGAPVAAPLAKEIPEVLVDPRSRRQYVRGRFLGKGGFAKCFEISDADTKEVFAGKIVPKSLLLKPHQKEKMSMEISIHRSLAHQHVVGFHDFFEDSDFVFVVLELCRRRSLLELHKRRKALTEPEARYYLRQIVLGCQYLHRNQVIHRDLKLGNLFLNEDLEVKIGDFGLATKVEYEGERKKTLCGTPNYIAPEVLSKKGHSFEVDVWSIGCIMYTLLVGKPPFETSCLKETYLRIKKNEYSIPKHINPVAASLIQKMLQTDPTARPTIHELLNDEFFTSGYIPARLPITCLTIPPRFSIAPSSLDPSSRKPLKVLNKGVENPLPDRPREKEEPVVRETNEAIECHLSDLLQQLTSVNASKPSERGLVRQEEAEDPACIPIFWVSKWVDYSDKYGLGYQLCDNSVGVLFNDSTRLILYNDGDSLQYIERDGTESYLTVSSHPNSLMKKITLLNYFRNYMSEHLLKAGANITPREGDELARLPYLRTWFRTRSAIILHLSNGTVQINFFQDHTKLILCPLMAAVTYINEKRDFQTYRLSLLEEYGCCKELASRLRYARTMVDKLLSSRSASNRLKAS
UniProt O35254: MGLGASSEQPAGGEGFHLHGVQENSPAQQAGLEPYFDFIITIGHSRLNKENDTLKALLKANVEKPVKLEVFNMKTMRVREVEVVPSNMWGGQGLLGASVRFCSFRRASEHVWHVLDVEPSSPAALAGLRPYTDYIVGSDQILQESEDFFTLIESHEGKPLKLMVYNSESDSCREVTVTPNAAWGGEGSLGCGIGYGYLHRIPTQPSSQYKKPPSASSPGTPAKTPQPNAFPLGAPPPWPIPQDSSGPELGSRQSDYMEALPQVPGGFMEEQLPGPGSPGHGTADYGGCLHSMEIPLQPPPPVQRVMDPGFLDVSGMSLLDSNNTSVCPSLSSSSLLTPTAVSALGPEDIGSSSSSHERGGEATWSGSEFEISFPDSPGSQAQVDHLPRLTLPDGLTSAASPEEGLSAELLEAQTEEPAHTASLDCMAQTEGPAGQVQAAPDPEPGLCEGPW

Key:
[1] = molecular target: Plk 323-499 (two-hybrid bait, wild-type polo box) (murine (mammalian Plk)) (UniProt Q07832); assay: yeast two-hybrid screen, mouse embryo cDNA library
[2] = molecular target: Plk 1-400 (two-hybrid bait) (murine (mammalian Plk)) (UniProt Q07832); assay: yeast two-hybrid screen, mouse embryo cDNA library
[3] = molecular target: Plk 323-499 (two-hybrid bait, wild-type polo box) (murine (mammalian Plk)) (UniProt Q07832); assay: yeast two-hybrid screen
[4] = molecular target: Plk 1-400 (two-hybrid bait) (murine (mammalian Plk)) (UniProt Q07832); assay: yeast two-hybrid screen

Measured: binding

GRASP65 (Golgi Reassembly Stacking Protein), amino acid residues 6-114, two-hybrid prey clone (from UniProt O35254 6-114)
binds: all assays above
